Drawing on publication doi:10.1101/511758 (bioRxiv, 2019), this text covers binding for 1 molecule.

The chains behind the UniProt entries cited, without tags or fusion partners.
UniProt P0AGE0: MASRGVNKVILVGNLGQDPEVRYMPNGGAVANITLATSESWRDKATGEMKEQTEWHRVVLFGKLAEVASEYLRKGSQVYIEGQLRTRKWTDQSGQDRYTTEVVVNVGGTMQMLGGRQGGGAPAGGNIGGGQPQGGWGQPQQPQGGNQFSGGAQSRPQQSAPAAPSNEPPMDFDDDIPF

This test deals with E. coli ssDNA binding protein SSB (E. coli) (UniProt P0AGE0). Put plainly: native gel or EMSA. Background: A gel shift assay detects complexes by their altered migration in electrophoresis.

These are yes or no findings as the source states them, for the method shown.

B1: human HelQ helicase (full-length HelQ) (enzyme)
chain: MDECGSRIRRRVSLPKRNRPSLGCIFGAPTAAELVPGDEGKEEEEMVAENRRRKTAGVLPVEVQPLLLSDSPECLVLGGGDTNPDLLRHMPTDRGVGDQPNDSEVDMFGDYDSFTENSFIAQVDDLEQKYMQLPEHKKHATDFATENLCSESIKNKLSITTIGNLTELQTDKHTENQSGYEGVTIEPGADLLYDVPSSQAIYFENLQNSSNDLGDHSMKERDWKSSSHNTVNEELPHNCIEQPQQNDESSSKVRTSSDMNRRKSIKDHLKNAMTGNAKAQTPIFSRSKQLKDTLLSEEINVAKKTVESSSNDLGPFYSLPSKVRDLYAQFKGIEKLYEWQHTCLTLNSVQERKNLIYSLPTSGGKTLVAEILMLQELLCCRKDVLMILPYVAIVQEKISGLSSFGIELGFFVEEYAGSKGRFPPTKRREKKSLYIATIEKGHSLVNSLIETGRIDSLGLVVVDELHMIGEGSRGATLEMTLAKILYTSKTTQIIGMSATLNNVEDLQKFLQAEYYTSQFRPVELKEYLKINDTIYEVDSKAENGMTFSRLLNYKYSDTLKKMDPDHLVALVTEVIPNYSCLVFCPSKKNCENVAEMICKFLSKEYLKHKEKEKCEVIKNLKNIGNGNLCPVLKRTIPFGVAYHHSGLTSDERKLLEEAYSTGVLCLFTCTSTLAAGVNLPARRVILRAPYVAKEFLKRNQYKQMIGRAGRAGIDTIGESILILQEKDKQQVLELITKPLENCYSHLVQEFTKGIQTLFLSLIGLKIATNLDDIYHFMNGTFFGVQQKVLLKEKSLWEITVESLRYLTEKGLLQKDTIYKSEEEVQYNFHITKLGRASFKGTIDLAYCDILYRDLKKGLEGLVLESLLHLIYLTTPYDLVSQCNPDWMIYFRQFSQLSPAEQNVAAILGVSESFIGKKASGQAIGKKVDKNVVNRLYLSFVLYTLLKETNIWTVSEKFNMPRGYIQNLLTGTASFSSCVLHFCEELEEFWVYRALLVELTKKLTYCVKAELIPLMEVTGVLEGRAKQLYSAGYKSLMHLANANPEVLVRTIDHLSRRQAKQIVSSAKMLLHEKAEALQEEVEELLRLPSDFPGAVASSTDKA
With B1, the binding entry was “no binding”.
